Measurements from “University of Dundee, Small-Polar-MMV Screening Library” (2021), ChEMBL document CHEMBL3988442.

Amino acid sequences for entries named in this document (tags omitted). Residues count along the entry.
UniProt P9WPC5, whole entry: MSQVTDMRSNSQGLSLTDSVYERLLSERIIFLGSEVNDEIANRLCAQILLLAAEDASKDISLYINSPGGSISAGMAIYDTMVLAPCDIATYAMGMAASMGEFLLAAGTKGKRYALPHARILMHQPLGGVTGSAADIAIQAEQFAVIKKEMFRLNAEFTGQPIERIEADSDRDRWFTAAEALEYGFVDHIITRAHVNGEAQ
UniProt P9WPC3, whole entry partner: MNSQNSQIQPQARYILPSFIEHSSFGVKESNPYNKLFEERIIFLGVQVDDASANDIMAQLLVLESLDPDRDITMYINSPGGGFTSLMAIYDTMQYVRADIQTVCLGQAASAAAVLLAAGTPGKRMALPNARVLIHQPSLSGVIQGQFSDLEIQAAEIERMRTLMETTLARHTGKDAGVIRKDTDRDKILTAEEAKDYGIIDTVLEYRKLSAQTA
UniProt P9WNZ1, whole entry: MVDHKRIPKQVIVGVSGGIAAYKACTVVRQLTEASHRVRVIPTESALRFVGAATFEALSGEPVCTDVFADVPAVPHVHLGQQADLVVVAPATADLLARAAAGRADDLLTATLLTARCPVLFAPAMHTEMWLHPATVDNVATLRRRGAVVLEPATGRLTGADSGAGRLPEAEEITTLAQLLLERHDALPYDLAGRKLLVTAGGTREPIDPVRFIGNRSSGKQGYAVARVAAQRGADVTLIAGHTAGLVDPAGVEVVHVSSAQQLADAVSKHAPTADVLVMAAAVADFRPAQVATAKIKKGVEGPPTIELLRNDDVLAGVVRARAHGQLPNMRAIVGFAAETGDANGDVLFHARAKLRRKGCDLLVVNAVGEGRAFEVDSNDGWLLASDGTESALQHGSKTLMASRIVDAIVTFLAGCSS
UniProt Q8IDJ8, 1-583: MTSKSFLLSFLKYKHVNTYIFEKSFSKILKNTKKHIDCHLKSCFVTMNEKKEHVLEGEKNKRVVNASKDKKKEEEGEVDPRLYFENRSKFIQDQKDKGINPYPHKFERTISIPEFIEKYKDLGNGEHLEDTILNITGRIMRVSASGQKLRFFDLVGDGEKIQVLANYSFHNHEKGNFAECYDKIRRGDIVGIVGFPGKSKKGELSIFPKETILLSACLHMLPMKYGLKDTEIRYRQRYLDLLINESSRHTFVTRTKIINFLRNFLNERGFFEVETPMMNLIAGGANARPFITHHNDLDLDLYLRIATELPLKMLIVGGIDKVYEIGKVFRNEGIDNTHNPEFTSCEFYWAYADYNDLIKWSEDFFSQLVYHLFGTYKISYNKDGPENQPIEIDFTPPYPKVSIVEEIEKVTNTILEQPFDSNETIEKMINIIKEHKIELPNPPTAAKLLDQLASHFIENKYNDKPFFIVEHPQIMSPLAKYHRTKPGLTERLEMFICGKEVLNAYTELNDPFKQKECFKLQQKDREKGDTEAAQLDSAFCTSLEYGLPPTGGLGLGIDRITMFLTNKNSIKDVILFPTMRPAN
UniProt Q4DA54, 1-478: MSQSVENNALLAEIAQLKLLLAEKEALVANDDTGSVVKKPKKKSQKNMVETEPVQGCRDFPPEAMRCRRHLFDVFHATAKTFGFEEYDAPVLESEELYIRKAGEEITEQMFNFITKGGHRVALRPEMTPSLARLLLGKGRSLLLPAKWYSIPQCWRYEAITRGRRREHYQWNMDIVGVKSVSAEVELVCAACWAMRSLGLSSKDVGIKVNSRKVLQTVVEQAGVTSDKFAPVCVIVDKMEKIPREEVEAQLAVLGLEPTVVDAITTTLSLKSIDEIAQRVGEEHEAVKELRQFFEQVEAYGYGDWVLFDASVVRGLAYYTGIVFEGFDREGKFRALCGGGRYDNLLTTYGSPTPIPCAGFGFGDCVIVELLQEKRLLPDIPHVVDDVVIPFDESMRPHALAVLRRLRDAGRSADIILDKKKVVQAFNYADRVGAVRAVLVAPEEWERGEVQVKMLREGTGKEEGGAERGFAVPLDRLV
UniProt I6X8D2, whole entry: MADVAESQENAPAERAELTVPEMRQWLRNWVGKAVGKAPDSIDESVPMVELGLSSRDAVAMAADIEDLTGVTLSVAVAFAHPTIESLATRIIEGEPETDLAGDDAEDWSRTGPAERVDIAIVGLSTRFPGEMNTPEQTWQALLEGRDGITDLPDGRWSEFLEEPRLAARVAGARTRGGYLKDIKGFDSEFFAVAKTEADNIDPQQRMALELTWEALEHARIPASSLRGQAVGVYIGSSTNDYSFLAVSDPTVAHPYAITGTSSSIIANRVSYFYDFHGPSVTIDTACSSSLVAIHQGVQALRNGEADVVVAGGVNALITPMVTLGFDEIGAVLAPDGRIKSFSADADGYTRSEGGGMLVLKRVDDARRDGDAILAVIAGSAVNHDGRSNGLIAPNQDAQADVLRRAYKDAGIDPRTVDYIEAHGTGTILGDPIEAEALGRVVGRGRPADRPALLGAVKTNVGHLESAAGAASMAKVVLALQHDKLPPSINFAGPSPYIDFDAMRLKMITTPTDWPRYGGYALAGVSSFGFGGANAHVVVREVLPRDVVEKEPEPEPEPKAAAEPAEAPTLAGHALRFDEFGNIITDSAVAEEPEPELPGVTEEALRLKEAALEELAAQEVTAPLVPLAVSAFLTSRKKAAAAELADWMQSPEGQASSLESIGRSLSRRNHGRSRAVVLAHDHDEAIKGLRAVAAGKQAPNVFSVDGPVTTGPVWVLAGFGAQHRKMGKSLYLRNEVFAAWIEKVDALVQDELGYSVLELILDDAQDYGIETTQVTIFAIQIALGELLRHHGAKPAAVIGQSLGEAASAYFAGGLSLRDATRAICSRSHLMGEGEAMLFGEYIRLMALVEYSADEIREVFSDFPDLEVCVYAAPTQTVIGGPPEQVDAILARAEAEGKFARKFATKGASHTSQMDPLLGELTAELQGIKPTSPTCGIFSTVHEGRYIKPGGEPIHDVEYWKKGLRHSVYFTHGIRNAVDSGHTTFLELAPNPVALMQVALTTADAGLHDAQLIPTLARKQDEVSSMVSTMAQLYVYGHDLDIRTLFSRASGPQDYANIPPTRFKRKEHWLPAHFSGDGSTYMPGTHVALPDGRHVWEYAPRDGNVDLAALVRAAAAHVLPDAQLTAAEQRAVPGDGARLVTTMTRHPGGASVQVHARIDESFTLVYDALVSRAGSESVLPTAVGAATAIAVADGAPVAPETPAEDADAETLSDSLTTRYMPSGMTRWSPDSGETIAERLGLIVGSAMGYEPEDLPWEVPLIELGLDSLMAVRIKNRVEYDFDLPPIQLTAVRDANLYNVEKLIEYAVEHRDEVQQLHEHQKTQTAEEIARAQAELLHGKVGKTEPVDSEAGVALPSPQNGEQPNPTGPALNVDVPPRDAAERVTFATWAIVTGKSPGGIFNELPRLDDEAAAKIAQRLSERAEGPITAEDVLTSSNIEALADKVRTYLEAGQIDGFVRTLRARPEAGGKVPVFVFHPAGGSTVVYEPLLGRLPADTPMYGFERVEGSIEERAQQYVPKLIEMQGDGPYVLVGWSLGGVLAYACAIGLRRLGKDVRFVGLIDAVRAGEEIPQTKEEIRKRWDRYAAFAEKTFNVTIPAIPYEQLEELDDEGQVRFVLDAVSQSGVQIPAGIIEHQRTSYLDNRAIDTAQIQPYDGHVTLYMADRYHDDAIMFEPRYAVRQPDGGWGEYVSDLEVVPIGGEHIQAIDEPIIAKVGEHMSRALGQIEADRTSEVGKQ

A: 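Protease assay of ClpP1P2, read by the AMC dye that it sets free. Target: ClpP1P2, Mycobacterium tuberculosis (UniProt P9WPC5 and UniProt P9WPC3). Concentration: 50 µM. Direction is inferred from only a few compounds that gave an IC50; most scored high, so higher reads as stronger inhibition. Most other retested compounds had strongly negative values. Size under these conditions: about 69,000 compounds, about 10 of them at 50% or above in at least one test.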
B: 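Enzyme assay of CoaBC with a phosphate dye (Biomol Green) read at 650 nm. Target: Coenzyme A biosynthesis protein CoaBC, Mycobacterium tuberculosis (UniProt P9WNZ1). Compounds at 30 µM. Direction is inferred from only a few compounds that gave an IC50; most scored high, so higher reads as stronger inhibition. Most strong results did not repeat in a second test. Of about 67,000 compounds tested this way, about 40 (0.06%) reached 50% or more in at least one test.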
C: 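Enzyme assay of the cytosolic lysyl-tRNA synthetase in 384-well plates, read by luminescence. Target: Lysine-tRNA ligase, Plasmodium falciparum 3D7 (UniProt Q8IDJ8). Compounds at 30 µM. Higher reads as stronger inhibition, judged from the few compounds that gave an IC50. Of about 69,000 compounds tested this way, about 49 (0.071%) reached 50% or more in at least one test.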
D: 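Enzyme assay of histidyl-tRNA synthetase; the read-out is not stated. Target: Histidine-tRNA ligase, Trypanosoma cruzi CL Brener (UniProt Q4DA54). Compounds at 30 µM. Higher reads as stronger inhibition (inferred: compounds with an IC50 in retests scored well above the rest). About 69,000 compounds were tested under these conditions; 0.045% (about 31) showed 50% or more at least once.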
E: 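Polyketide synthase Pks13, Mycobacterium tuberculosis (UniProt I6X8D2). Enzyme assay of the thioesterase domain of polyketide synthase 13; the read-out is not stated. Tested at 30 µM. The record gives no direction; the compounds picked for IC50 retests had high values, so higher reads as stronger inhibition. About 67,000 compounds were tested under these conditions; 0.46% (about 300) showed 50% or more at least once.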

Values are the deposited “Percent Effect”, in %. The controls that fix the scale are not given in the record; negative values are as filed. The compounds are a random part of those screened. A dash means the value is not listed here; it may have been measured.

compound	A	B	C	D	E
COc1cc(N2CC[C@@H]3O[C@@H](c4ccnc(C)n4)C[C@H]3C2)ncn1	1.707	8.75	5.77	-2.674	-25.28
NS(=O)(=O)c1cccnc1Nc1cccc(Cl)c1Cl	-0.1523	8.277	1.28	-2.062	10.08
CCOc1ncccc1NC(=O)c1sccc1C	3.602	-7.173	5.781	11.38	-8.827
Cn1cc(CCC(=O)N2CCCN(c3ncccc3C#N)CC2)cn1	-61.19	3.851	-1.267	2.579	13.41
CCn1cc2c(n1)CN(S(=O)(=O)Cc1ccccc1)CC2COC (configuration not stated)	-6.56	-3.333	-6.882	4.813	-6.419
CC(C(=O)N1CCOCC1)n1nc(-c2cccs2)cc(N)c1=O (configuration not stated)	-20.63	8.252	2.081	4.215	-40.19
COc1cnc(C2(O)CCN(C(=O)c3scnc3C)CC2)c(OC)n1	-11.84	-2.67	-3.253	-2.198	-28.24
Cn1cc(CN2C[C@@H]3COC[C@]3(C(=O)NCc3ccccn3)C2)cn1	10.54	1.142	-0.4746	0.5405	-3.661
CC(C)(C)c1cc(CN2CCOC(CCc3ccccc3)C2)n[nH]1 (configuration not stated)	0.1538	12.22	19.69	4.762	-16.45
Cc1oc(C(=O)O)cc1S(=O)(=O)Nc1ccccc1F	-3.826	-5.548	-2.122	0.5747	-11.74
Cc1cc(-c2nn(C)c(Cl)c2CN2CCOCC2CC(N)=O)no1 (configuration not stated)	4.235	5.952	9.597	-1.02	10.9
O=C(Nc1ccc2c(c1)OCCO2)N1CCCN(Cc2cccs2)CC1	-11.49	8.423	3.109	7.143	-17.92
COc1ccc(F)c(-c2cc(O)nc(N)n2)c1	-14.59	1.282	5.23	3.784	-
CSc1[nH]c(=O)c(C(=O)N2CCCC2C2CCCC2)cc1C#N (configuration not stated)	-5.534	-2.427	5.737	10.89	-8.479
COc1ccc(C(C)NC(=O)Nc2nnc(C)s2)cc1OC (configuration not stated)	6.739	-1.288	4.238	2.326	6.508
O=C(Cn1cccn1)NCC1CCCN(Cc2ccccc2)C1 (configuration not stated)	-4.879	7.371	2.888	11.76	-
Cc1nnc(NCCC(=O)NCc2ccccc2)c(C#N)c1C	4.384	-1.946	21.48	13.33	-7.789
COc1cccc(C(=O)NS(=O)(=O)c2cccc(C#N)c2)c1	-21.63	3.448	-0.7631	2.89	-9.739
COc1ncccc1C(=O)N1CC[C@H]2C[C@@H](c3nccs3)O[C@@H]2C1	-2.035	5.013	1.828	8.537	-1.866
CCOc1ccc(C(=O)Nc2c(C)nc3cccc(C)n3c2=O)cc1	-3.979	3.544	1.983	9.756	12.07
O=C(Cc1ccsc1)N1CCCC(c2n[nH]c3nccnc23)C1 (configuration not stated)	1.304	1.944	7.487	-0.5405	-23.67
N#Cc1nccnc1N1CCC(C(O)c2cccs2)CC1 (configuration not stated)	3.702	-3.537	3.438	6.627	5.456
CCCc1c(C(=O)N2CCN(c3nccc(OC)n3)CC2)cnn1C	-3.079	0.7937	2.58	3.448	-13.98
c1cc(CNCC2Cn3nncc3CO2)ccn1 (configuration not stated)	-7.328	5.123	5.977	5.747	-7.275
CC(CCc1ccccc1F)C(=O)NS(=O)(=O)CC1CC1 (configuration not stated)	-14.87	5.696	6.977	5.419	0.0272
CCCN(CCO)C(=O)c1cc(COc2ccc3c(c2)CCCC3)on1	1.627	-8.549	-2.276	0.5291	17.96
Cc1cnccc1NCCn1ccnc1C1CCCCC1	-1.496	-35.74	-0.2333	8.511	-9.738
CCCc1nc(CN2CCCC2c2cnn(C)c2)cs1 (configuration not stated)	-10.97	-0.2625	-2.539	14.29	-10.48
CC(C(=O)N1CCC(c2[nH]ncc2-c2ccccc2)CC1)n1cncn1 (configuration not stated)	3.484	4.854	3.306	13.07	15.73
COc1cc(C(=O)NC(C)(C)CN2CCN(C)CC2)c2ccccc2n1	-10.95	0.4932	2.745	4.545	-0.2055
CCn1cc(CN2CCCN(C(=O)c3ccco3)CC2)cn1	-35.41	4.7	0.6096	9.038	-15.03
CC(C)c1cc(C(=O)N(c2ccc(F)cn2)C2CCOCC2)nn1C	5.794	-	2.56	5.732	-38.81
O=C(c1ccno1)N1CCN2C(=O)N(Cc3ccc(F)cc3)C[C@H]2C1	-4.666	13.77	7.253	-0.9901	-29.58
COc1cccc2c1N(CC(=O)Nc1ccc(Cl)cn1)CCC2	-3.477	-3.03	6.43	4.082	-11.35
N#Cc1ccccc1N1CCN(CCC(=O)N2CCOCC2)CC1	-2.639	8.333	12.21	-1.02	-14.14
COc1ccc(CNCCC(=O)N2CCc3sccc3C2)cc1O	-1.938	4.019	5.658	12.5	-23.59
O=C(N1CCCC1)N1CCc2onc(COc3cccnc3)c2C1	-0.4621	-0.75	5.464	7.843	-7.708
NC(=O)c1cncc(N2CCN(Cc3ccc(F)cc3Cl)CC2)n1	-11.35	2.885	8.692	5.911	23.37
COCCn1ccnc1C1CCCN(C(=O)CSCC2CC2)C1 (configuration not stated)	3.458	-1.688	4.773	-2.439	-26.76
Cc1ccc(S(=O)(=O)Nc2c(C)nc(N3CCCC3)nc2C)cc1	-2.646	1.057	6.394	17.53	-22.87
Fc1ccc(CNCCn2cccn2)c(Cl)c1	-3.827	-3.1	4.446	2.632	-0.6825
O=C1CN(c2ccc(CNC(=O)c3ccc[nH]3)cc2F)CCN1	-16.8	1.467	4.104	4.124	-1.451
c1cc(CNCc2ccc(Cn3cncn3)cc2)c2c(c1)OCCO2	8.043	-0.3645	5.751	15.84	-11.54
CC(C)(C)OC(=O)N1CCN(c2ccc(F)cc2)CC1C(=O)O (configuration not stated)	-9.504	3.325	-1.061	1.538	-4.548
Cn1cnc2c1C(C(=O)N1CCOCC1)N(C(=O)c1ccccc1)CC2 (configuration not stated)	5.399	-	7.048	6.135	-32.68
CC(C)N1Cc2c(C(=O)N3CCOCC3)nn(C)c2C1	-0.8297	2.314	2.829	0.5525	-38.06
CC(CNC(=O)c1cccc(-n2cccn2)c1)Cn1ccnc1 (configuration not stated)	15.01	-	8.493	0.6369	-48.94
Cc1cnn(C2CN(CC(=O)NCC3(c4ccccc4)CC3)C2)c1	2.848	-8.894	6.18	17.02	-33.77
CC(=O)NCCNC(=O)c1cnc(-c2ccccc2)nc1	-12.47	-0.4405	11.15	1.695	-0.7808

5 of the entries, repeated:

N#Cc1nccnc1N1CCC(C(O)c2cccs2)CC1 (configuration not stated) gave A: 3.702%; B: -3.537%; C: 3.438%; D: 6.627%; E: 5.456%.
Cn1cc(CCC(=O)N2CCCN(c3ncccc3C#N)CC2)cn1 gave A: -61.19%; B: 3.851%; C: -1.267%; D: 2.579%; E: 13.41%.
Cc1cc(-c2nn(C)c(Cl)c2CN2CCOCC2CC(N)=O)no1 (configuration not stated) gave A: 4.235%; B: 5.952%; C: 9.597%; D: -1.02%; E: 10.9%.
CSc1[nH]c(=O)c(C(=O)N2CCCC2C2CCCC2)cc1C#N (configuration not stated) gave A: -5.534%; B: -2.427%; C: 5.737%; D: 10.89%; E: -8.479%.
COc1ccc(CNCCC(=O)N2CCc3sccc3C2)cc1O gave A: -1.938%; B: 4.019%; C: 5.658%; D: 12.5%; E: -23.59%.